# Measurements reported in PubChem BioAssay AID493014 (National Center for Advancing Translational Sciences (NCATS), 2011).
# Some of the results follow. Shown are side measurements of this screen, not its main read-out; they come without a call. The list favours compounds with an active or inconclusive main result. Words in brackets tell the shape of the fitted curve; partial curves, single points and poor fits give uncertain potencies.
# Assay: qHTS Assay to Find Inhibitors of Chronic Active B-Cell Receptor Signaling
# Settings: ABC-DLBCL IkBa-CBG/CBR reporter, luminescence ratio (green luciferase fused to IkBa over red control in TMD8 lymphoma cells), 4 h
# How it was run: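 Compounds up to 46 uM were incubated four hours with TMD8 cells whose green CBG68 luciferase is fused to IkappaBalpha; red CBR luminescence normalised the signal, and concentration-effect curves were fitted to fusion, red and ratio data.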
# [1] = measured here: CBR red luminescence, cell number
# [2] = measured here: IkBa-CBG green luminescence
smiles,measurement,setting,value
O=C1CSC(c2ccccn2)N1c1ccccc1 (stereo not drawn),AC50,[1],"3.55 µM [falling, single point]"
Cc1cc(=O)n2[nH]c(SCc3ccccc3)nc2n1,AC50,[1],"7.31 µM [falling, partial curve]"
COc1cccc(NC(=O)C(=S)NC2CCCCC2)c1,AC50,[1],"12.6 µM [falling, partial curve]"
CC1CCCC(NC(=S)Nc2cccc(S(=O)(=O)N(C)C)c2)C1C (stereo not drawn),AC50,[1],"0.501 µM [rising, full curve]"
CN(C)C(=O)CSc1nnc(-c2cccs2)n1-c1ccccc1,AC50,[1],"25.1 µM [rising, single point]"
S=C(NCc1ccc2c(c1)OCO2)NCc1ccco1,AC50,[1],"35.5 µM [falling, partial curve, poor fit]"
CC(=O)OCC(=O)[C@@]1(OC(C)=O)[C@@H](C)C[C@H]2[C@@H]3C[C@H](F)C4=CC(=O)C=C[C@]4(C)[C@@]3(F)[C@@H](O)C[C@@]21C,AC50,[1],"0.092 µM [rising, full curve, poor fit]"
CCn1c(=N)n(CC(O)COc2cccc(C)c2)c2ccccc21 (stereo not drawn),AC50,[1],"23.1 µM [falling, partial curve, poor fit]"
CCSC1=C(C#N)C(=O)n2c1cc1c2CCCC1,AC50,[1],"18.4 µM [falling, single point]"
[O-]/[N+](=C/c1ccco1)c1ccccc1,AC50,[1],"7.94 µM [falling, partial curve]"
Cc1c2ccccc2c(C)c2c1ccc1ccccc12,AC50,[1],"10.3 µM [rising, partial curve, poor fit]"
COc1ccc(-c2nn(-c3ccccc3C)cc2CNC(C)c2cn(C)nc2C)cc1F (stereo not drawn),AC50,[1],"17.8 µM [falling, single point]"
CCN(CC)CCCCNc1ncc2cc(-c3cc(OC)cc(OC)c3)c(NC(=O)NC(C)(C)C)nc2n1,AC50,[1],"5.62 µM [falling, full curve, poor fit]"
O=C(Nc1cccc(Cl)c1Cl)C1CC(=O)N(c2ccc(Br)cc2)C1 (stereo not drawn),AC50,[1],"29.1 µM [rising, single point]"
Cc1ccc(Cn2nc(C)cc2C(=O)Nc2ccc(Cl)cc2)cc1,AC50,[1],"15.8 µM [falling, single point]"
O=C(Nc1cccc(S(=O)(=O)N2CCCCC2)c1)c1ccc2ncsc2c1,AC50,[1],"4.47 µM [falling, partial curve]"
CCCCn1c(N)c(N(CC(C)C)C(=O)C2=NN(c3ccccc3)C(=O)CC2)c(=O)[nH]c1=O,AC50,[1],"0.411 µM [rising, full curve, poor fit]"
CCCn1nc(C(=O)N(C)CC(=O)Nc2ccc(OCC)c(OCC)c2)c2ccccc2c1=O,AC50,[1],"0.326 µM [falling, full curve, poor fit]"
CNCc1ccccc1Sc1cc(O)ccc1O,AC50,[1],"29.1 µM [falling, single point]"
same,AC50,[2],"23.1 µM [falling, single point]"
N#CC1=C2SCN(c3ccccc3)CN2C(=O)CC1c1c(Cl)cccc1Cl (stereo not drawn),AC50,[2],"15.8 µM [falling, single point]"
CC(C)n1cnc2c(Nc3ccc(F)c(Cl)c3)nc(NCCO)nc21,AC50,[1],"15.8 µM [falling, single point]"
CC(C)c1ccc(NC(=O)C(=O)C2C(=O)Nc3ccccc32)cc1 (stereo not drawn),AC50,[1],"11.2 µM [falling, single point]"
CN1CCN(c2ccccc2NC(=O)c2cccs2)CC1,AC50,[1],"35.5 µM [falling, partial curve, poor fit]"
CN(CC(=O)Nc1ccc(F)cc1)C(=O)COC(=O)CNC(=O)c1ccc(Cl)cc1Cl,AC50,[1],"0.326 µM [falling, full curve, poor fit]"
CCCN1CCC(=O)N([C@H](COc2ccccc2)c2ccccc2)CC1,AC50,[1],"10 µM [falling, partial curve, poor fit]"
Cc1ccc(-c2nc(N=Nc3ccc(O)cc3)n[nH]2)cc1,AC50,[1],"2.31 µM [falling, partial curve]"
COC(=O)c1ccc(NC(=O)c2ccc(CN3CCOCC3)cc2)cc1,AC50,[1],"29.1 µM [rising, single point]"
O=C(COC(=O)c1ccc(CNS(=O)(=O)c2ccc(F)c(Cl)c2)cc1)NC1CCCCCCC1,AC50,[1],"7.31 µM [falling, single point]"
COc1ccc(N(C)S(=O)(=O)c2c(C)noc2C)c(OC)c1,AC50,[1],"14.1 µM [rising, single point]"
Cn1cc(C(=O)NCN2CCCCC2)c2ccccc21,AC50,[1],"0.731 µM [rising, full curve, poor fit]"
Oc1ccc(-c2csc(NCc3ccco3)n2)cc1,AC50,[1],"16.4 µM [falling, single point]"
CSc1nc(C)c(Cc2c(F)cccc2Cl)c(=O)[nH]1,AC50,[1],"14.1 µM [rising, partial curve, poor fit]"
Cc1n[nH]c(C)c1CCCCOc1ccccc1F,AC50,[1],"6.31 µM [rising, single point]"
N#Cc1c(Cl)nsc1NC(=O)c1ccccc1,AC50,[1],"11.2 µM [falling, single point]"
COc1ccc(-c2oc(NC(=O)c3ccc(C)cc3)c(C#N)c2-c2ccc(OC)cc2)cc1,AC50,[1],"1.84 µM [rising, partial curve, poor fit]"
COc1ccc(/C(N)=N/OC(=O)Cc2ccccc2[N+](=O)[O-])cc1,AC50,[1],"2.59 µM [rising, partial curve]"
C/C(Cl)=C/Cc1c(C)[nH]c2c(ccc3ccccc32)c1=O,AC50,[1],"3.55 µM [falling, full curve]"
OC(c1ccc(OCc2ccccc2)cc1)c1nnc(-c2ccccc2)o1 (stereo not drawn),AC50,[1],"0.517 µM [rising, full curve, poor fit]"
Cc1ccc(C(=O)N/N=C\C=C\c2ccc(Br)cc2)cn1,AC50,[1],"0.178 µM [falling, full curve]"
Cc1c(C(=O)Nc2ccc3c(c2)OCO3)sc2ncn(CC(=O)N3CC(C)CC(C)C3)c(=O)c12 (stereo not drawn),AC50,[1],"18.4 µM [falling, single point]"
COc1ccccc1CNC(=O)Cc1csc(NC(=O)Nc2ccccc2OC)n1,AC50,[1],"29.1 µM [falling, single point]"
COc1cc(/C=C(\C#N)C(=O)c2c[nH]c3ccccc23)cc(OC)c1O,AC50,[1],"22.4 µM [falling, partial curve]"
COc1ccc(C)cc1NC(=O)C(NCC1CCCO1)c1ccccc1 (stereo not drawn),AC50,[1],"6.51 µM [rising, single point]"
CCOc1ccc2ccccc2c1/C=N/NC(=O)c1ccncc1,AC50,[1],"20 µM [rising, single point]"
CO/N=C(/COc1ccc(F)cc1)c1ccc(OC)cc1,AC50,[1],"3.55 µM [rising, partial curve, poor fit]"
c1ccc(CCNc2ncnc3ccccc23)cc1,AC50,[1],"17.8 µM [falling, single point]"
CCOC(=O)c1[nH]c(C)c(/C=N/O)c1C,AC50,[1],"11.2 µM [falling, partial curve, poor fit]"
same,AC50,[2],"11.2 µM [falling, partial curve, poor fit]"
Cn1nnnc1Sc1ncnc2scc(-c3cccc(F)c3)c12,AC50,[1],"2.59 µM [falling, partial curve]"
CCCCCCCNC(=O)c1ccc(N2CCC3(CC2)OCCO3)c([N+](=O)[O-])c1,AC50,[2],"5.8 µM [falling, partial curve, poor fit]"
O=C(NCCCc1ccccc1)Nc1cccc(Cl)c1,AC50,[1],"29.1 µM [falling, single point]"
Cc1ccc(-c2nn(-c3ccccc3)cc2/C=C2\SC(=S)N(CCCCCC(=O)O)C2=O)o1,AC50,[1],"4.47 µM [falling, partial curve, poor fit]"
OCc1cc(-c2ccc(Cl)c(Cl)c2)on1,AC50,[1],"8.91 µM [rising, partial curve, poor fit]"
Cc1cccc(NC(=S)NCc2ccc3c(c2)OCO3)c1,AC50,[1],"0.651 µM [rising, full curve, poor fit]"
CCOC(=O)c1ccc(NC(=O)CSc2ccc3ccccc3n2)cc1,AC50,[1],"0.708 µM [falling, full curve, poor fit]"
COc1ccccc1NC(=O)CCC(=O)Nc1cc(OC)c(NC(=O)c2cccs2)cc1OC,AC50,[1],"35.5 µM [falling, single point]"
COc1ccc2oc(=O)c(C(=O)Nc3ccccc3O)cc2c1,AC50,[1],"3.55 µM [falling, partial curve]"
CCOC(=O)c1c(N)c2cc([N+](=O)[O-])ccc2n1C,AC50,[1],"1.26 µM [rising, partial curve]"
O=C(CC1CCCCC1)NCc1ccccn1,AC50,[1],"29.1 µM [rising, single point]"
CCOC(=O)CNC(=O)N1CCC(CCC(=O)N(C)Cc2ccccc2)CC1,AC50,[1],"3.55 µM [rising, partial curve, poor fit]"
COc1ccc(-c2nonc2NC(=O)c2oc3ccc(F)cc3c2C)cc1OC,AC50,[1],"3.98 µM [rising, single point]"
CN1CCN(c2ccc(Cl)cc2NC(=O)C2COc3ccccc3O2)CC1 (stereo not drawn),AC50,[1],"25.1 µM [falling, single point]"
O=C(NNC(=O)c1cccs1)Nc1cccc(Cl)c1,AC50,[1],"35.5 µM [falling, single point]"
CCC(C)NC(=O)c1ccc(CSCc2cccc(F)c2)o1 (stereo not drawn),AC50,[1],"29.1 µM [rising, single point]"
Cc1nc2cc(NC(=O)NCc3ccccc3)ccc2o1,AC50,[1],"11.2 µM [falling, partial curve, poor fit]"
CCN(CC)CCNC(=O)Cc1c(C(=O)O)n(CC)c2ccccc12,AC50,[1],"6.51 µM [rising, single point]"
NC(=O)SCC(=O)Nc1ccccc1C(=O)O,AC50,[1],"35.5 µM [falling, single point]"

# Looked up one by one from the entries so far, four records:
smiles,measurement,setting,value
Cc1cccc(NC(=S)NCc2ccc3c(c2)OCO3)c1,AC50,[1],"0.651 µM [rising, full curve, poor fit]"
CSc1nc(C)c(Cc2c(F)cccc2Cl)c(=O)[nH]1,AC50,[1],"14.1 µM [rising, partial curve, poor fit]"
Cn1cc(C(=O)NCN2CCCCC2)c2ccccc21,AC50,[1],"0.731 µM [rising, full curve, poor fit]"
CCCCn1c(N)c(N(CC(C)C)C(=O)C2=NN(c3ccccc3)C(=O)CC2)c(=O)[nH]c1=O,AC50,[1],"0.411 µM [rising, full curve, poor fit]"
